# The list is a part of this screen's results and no random one: it is rich in T/C values a quarter to a half above the control, in often repeated tests (any T/C) and in doses without a T/C. Other doses and runs of a compound stand elsewhere. T/C is the treated group as % of the vehicle group. Some entries give survivors of the animals treated and no T/C: the source holds a T/C of zero for them, seemingly a mark for toxic or unscored doses. Some survivor counts are full or nearly so, which does not show that the dose was tolerated: survival well below the control is almost never listed, so the zero probably covers shortened survival too. Survivors were counted at the toxicity check, usually on the fifth day, unless a day is given; later deaths do not show. Schedule codes are those of the source, read here as Q, the interval in days (D) or hours (H), X, the number of doses. Signs of the kind (2×) give the number of equal values in this list. Some entries were tested several times; the results are listed from low to high. For survival time, the PubChem record calls one and a half times the control and up active, and a quarter to a half above the control has no call in these data; cut-offs in other NCI protocols can differ. Some T/C values carry the count of animals alive at the toxicity check (mostly the fifth day); where none is given, no animal had died by that day.
# Test system: B6C3F1 mice, ip Sarcoma M5076, median survival T/C
# Assay: NCI In Vivo Anticancer Drug Screen. Data for tumor model Sarcoma M5076 (intraperitoneal) in B6C3F1 mice
# Conditions: T/C endpoint: median survival time, schedule: Q04DX004 (ip), higher T/C = longer survival
# How it was run: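 Antitumour effect is judged in tumour-bearing mice by comparing survival after compound dosing against vehicle-only animals, reported as T/C.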
# [1] = dose: 12.5 mg/kg/injection, vehicle: saline
# [2] = dose: 100.0 mg/kg/injection, vehicle: saline
# [3] = dose: 200.0 mg/kg/injection, vehicle: saline
# [4] = dose: 800.0 mg/kg/injection, vehicle: saline with Tween-80
# [5] = dose: 400.0 mg/kg/injection, vehicle: Klucel (hydroxypropylcellulose) (HPC)
# [6] = dose: 800.0 mg/kg/injection, vehicle: Klucel (hydroxypropylcellulose) (HPC)
# [7] = dose: 600.0 mg/kg/injection, vehicle: saline with Tween-80
# [8] = dose: 200.0 mg/kg/injection, vehicle: Klucel (hydroxypropylcellulose) (HPC)
# [9] = dose: 400.0 mg/kg/injection, vehicle: saline with Tween-80
# [10] = dose: 200.0 mg/kg/injection, vehicle: saline with Tween-80
# [11] = dose: 100.0 mg/kg/injection, vehicle: Klucel (hydroxypropylcellulose) (HPC)
# [12] = dose: 2.0 mg/kg/injection, vehicle: water
# [13] = dose: 4.0 mg/kg/injection, vehicle: water
# [14] = dose: 50.0 mg/kg/injection, vehicle: saline
# [15] = dose: 400.0 mg/kg/injection, vehicle: saline
# [16] = dose: 50.0 mg/kg/injection, vehicle: saline with Tween-80
# [17] = dose: 100.0 mg/kg/injection, vehicle: saline with Tween-80
compound,measurement,setting,value
C/C(=N\NC(=O)c1ccccc1O)c1cccc(/C(C)=N/NC(=O)c2ccccc2O)n1,survivor count,[1],10 of 10 on day 14
same,T/C,"dose: 12.5 mg/kg/injection, vehicle: suspension in saline",132 % of control
same,T/C,"dose: 50.0 mg/kg/injection, vehicle: suspension in saline",130 % of control
same,survivor count,[2],7 of 10 on day 14
same,survivor count,[3],0 of 10 on day 14
same,survivor count,"dose: 200.0 mg/kg/injection, vehicle: suspension in saline",5 of 10 on day 14
Nc1ccc2ccc(NS(=O)(=O)N3CCCCC3)cc2c1,T/C,[4],125 % of control [7 of 10 alive on day 14]
CC(=O)C(Cl)C(=O)c1c(C)[nH]n(-c2ccccc2)c1=O (stereo unspecified),survivor count,[5],0 of 10 on day 14
same,survivor count,[6],0 of 10 on day 14
[Cl][Mn][Cl],survivor count,[3],0 of 10 on day 14
COc1ccc(-n2c(CSc3ccc(Cl)cc3)n[nH]c2=S)cc1,survivor count,[7],10 of 10 on day 14
COc1cc2c(c3c1c(=O)c1cccc(F)c1n3C)C=CC(C)(C)O2,T/C,[8],129 % of control
same,survivor count,[5],8 of 10 on day 14
same,survivor count,[6],0 of 10 on day 14
S=c1sc2ccccc2n1CN1CCOCC1,survivor count,[9],5 of 10 on day 14 and 6 of 10 on day 14
COc1ccc2c(c1)n([O-])c1ccccc1[n+]2=O,survivor count,[10],0 of 10 on day 14
same,survivor count,[9],0 of 10 on day 14
COC1OC(COC(C)=O)C(OC(C)=O)C(OC(C)=O)[CH]1[Hg][O]C(C)=O (stereo unspecified),survivor count,"dose: 25.0 mg/kg/injection, vehicle: Klucel (hydroxypropylcellulose) (HPC)",3 of 10 on day 14
same,survivor count,"dose: 50.0 mg/kg/injection, vehicle: Klucel (hydroxypropylcellulose) (HPC)",0 of 10 on day 14
same,survivor count,[11],0 of 10 on day 14
CC/C(=C(\c1ccccc1)c1ccc(OCCN(C)C)cc1)c1ccccc1,survivor count,[11],10 of 10 on day 14 (2×)
same,survivor count,[8],9 of 10 on day 14 and 10 of 10 on day 14
same,survivor count,[5],2 of 10 on day 14
same,survivor count,[6],0 of 10 on day 14
CCNC(=O)[B-][N+](C)(C)C,survivor count,[4],0 of 10 on day 14
Cc1ccc(C(=O)NC2C(=O)NC(C(C)C)C(=O)N3CCCC3C(=O)N(C)CC(=O)N(C)C(C(C)C)C(=O)OC2C)c2c1Oc1c(c(C(=O)NC3C(=O)NC(C(C)C)C(=O)N4CCCC4C(=O)N(C)CC(=O)N(C)C(C(C)C)C(=O)OC3C)c3nc(-c4ccccc4)c(=O)oc3c1C)N2 (stereo unspecified),T/C,"dose: 0.5 mg/kg/injection, vehicle: water",127 % of control
same,survivor count,"dose: 1.0 mg/kg/injection, vehicle: water",10 of 10 on day 14
same,T/C,[12],127 % of control
same,survivor count,[12],0 of 10 on day 14
same,survivor count,[13],0 of 10 on day 14 and 2 of 10 on day 14
CCOC(=O)Nc1cc2c(c(N)n1)N=C(c1ccc3ccccc3c1)CN2,survivor count,"dose: 60.0 mg/kg/injection, vehicle: saline with Tween-80",0 of 10 on day 14
NCCCN=c1ccc2c3c1c(O)c1c(O)ccc(=O)c1c3[nH]n2CCNCCO,T/C,[12],125 % of control
same,T/C,[13],149 % of control
same,T/C,"dose: 32.0 mg/kg/injection, vehicle: water",136 % of control
O=S(=O)(O)C1=CC(=N\Cl)/C=CC/1=N/Cl,survivor count,[7],0 of 10 on day 14
Cn1nnc2c(C(N)=O)ncn2c1=O,T/C,[14],142 % of control
same,survivor count,[15],0 of 10 on day 14
same,survivor count,"dose: 800.0 mg/kg/injection, vehicle: saline",0 of 10 on day 14
NC1=NCc2c(sc3c2CCCC3)N1,survivor count,[8],0 of 10 on day 14
C=CC(=O)OCCOCN(COCCOC(=O)C=C)c1nc(N(COCCOC(=O)C=C)COCCOC(=O)C=C)nc(N(COCCOC(=O)C=C)COCCOC(=O)C=C)n1,survivor count,"dose: 300.0 mg/kg/injection, vehicle: saline with Tween-80",0 of 10 on day 14
CCN(CC)CCn1c2c(c3ccc(OC)cc31)CCN1CC3CC(OC(=O)c4cc(OC)c(OC)c(OC)c4)C(OC)C(C(=O)OC)C3CC21 (stereo unspecified),survivor count,[15],6 of 10 on day 14
Nc1ccc2c(c1)CN1C(=O)c3ccccc3C1=N2,survivor count,[10],6 of 10 on day 14
same,survivor count,[9],0 of 10 on day 14
CC(C)(C)c1noc2c1C(=O)c1ccccc1-2,survivor count,[9],9 of 10 on day 14
Cc1cc(C)cc(N(C2=NCCS2)C2=NCCS2)c1,survivor count,[6],10 of 10 on day 14
O=c1c2ccccc2nc(-c2ccccc2)n1-c1nccs1,survivor count,[16],10 of 10 on day 14
same,survivor count,[17],10 of 10 on day 14
COc1cc(/C=C/[N+](=O)[O-])cc(Br)c1OC,survivor count,[10],2 of 10 on day 14
CC[C@@]1(O)C(=O)OCc2c1cc1n(c2=O)Cc2cc3ccccc3nc2-1,T/C,"dose: 0.75 mg/kg/injection, vehicle: saline with Tween-80",126 % of control
same,T/C,"dose: 1.5 mg/kg/injection, vehicle: saline with Tween-80",125 % of control
same,T/C,"dose: 3.0 mg/kg/injection, vehicle: saline with Tween-80",134 % of control
same,survivor count,"dose: 12.0 mg/kg/injection, vehicle: saline with Tween-80",5 of 10 on day 14
CC1/C=C/C=C/CC/C=C/C=C/C=C/C=C/C(OC2OC(C)C(O)C(N)C2O)CC2OC(CC(O)C(O)CCC(O)CC(O)CC(O)CC(=O)OC(C)C(C)C1O)CC(O)C2C(=O)O (stereo unspecified),survivor count,[10],3 of 10 on day 14
same,survivor count,[9],2 of 10 on day 14
CO[C@@]12[C@@H]3N[C@@H]3CN1C1=C(C(=O)C(N3CCCC3)=C(C)C1=O)[C@@H]2COC(N)=O,survivor count,"dose: 25.0 mg/kg/injection, vehicle: saline with Tween-80",0 of 10 on day 14
same,survivor count,[16],0 of 10 on day 14
same,survivor count,[17],0 of 10 on day 14
CC[C@](O)(C(=O)O)c1cc2n(c(=O)c1CO)Cc1cc3ccccc3nc1-2,T/C,[1],131 % of control
same,T/C,"dose: 25.0 mg/kg/injection, vehicle: saline",142 % of control [9 of 10 alive on day 14]
same,survivor count,[14],3 of 10 on day 14
same,survivor count,[2],0 of 10 on day 14
NC(=O)C1=CC2C3C=CC2(O)C(=O)OC3O1 (stereo unspecified),survivor count,"dose: 120.0 mg/kg/injection, vehicle: Klucel (hydroxypropylcellulose) (HPC)",0 of 10 on day 14
[CH3][Sn]([CH3])([Cl])[c]1cc[c]([Sn]([CH3])([CH3])[Cl])cc1,survivor count,"dose: 5.76 mg/kg/injection, vehicle: saline",3 of 9 on day 14
same,survivor count,"dose: 9.6 mg/kg/injection, vehicle: saline",0 of 10 on day 14
same,survivor count,"dose: 16.0 mg/kg/injection, vehicle: saline",0 of 10 on day 14
same,survivor count,"dose: 26.67 mg/kg/injection, vehicle: saline",0 of 10 on day 14
same,survivor count,"dose: 44.45 mg/kg/injection, vehicle: saline",0 of 10 on day 14
CCOC(=O)N(C)N=NC,T/C,"dose: 6.0 mg/kg/injection, vehicle: saline",133 % of control [9 of 10 alive on day 14]
same,T/C,"dose: 7.5 mg/kg/injection, vehicle: saline",131 % of control
same,T/C,"dose: 15.0 mg/kg/injection, vehicle: saline",140 % of control
same,survivor count,"dose: 120.0 mg/kg/injection, vehicle: saline",3 of 10 on day 14

# — PubChem BioAssay AID292 (DTP/NCI, 2004)
